Results as given in PMC7026596.
These are yes or no findings as the source states them, for the method shown. Some results given as binding are weak or reduced against the parent protein; the word gives no strength. Blank lines part the entries; values can stand above or below the substance they belong to.

Sequences of proteins named here, by UniProt entry; tags and fusion partners are left off. A change or cut given only in a name is not applied to a line headed by its entry. A line that says so, or that is headed by a name, gives the form on record, which may keep a tag or linker. Residues count along the entry.
UniProt P83369: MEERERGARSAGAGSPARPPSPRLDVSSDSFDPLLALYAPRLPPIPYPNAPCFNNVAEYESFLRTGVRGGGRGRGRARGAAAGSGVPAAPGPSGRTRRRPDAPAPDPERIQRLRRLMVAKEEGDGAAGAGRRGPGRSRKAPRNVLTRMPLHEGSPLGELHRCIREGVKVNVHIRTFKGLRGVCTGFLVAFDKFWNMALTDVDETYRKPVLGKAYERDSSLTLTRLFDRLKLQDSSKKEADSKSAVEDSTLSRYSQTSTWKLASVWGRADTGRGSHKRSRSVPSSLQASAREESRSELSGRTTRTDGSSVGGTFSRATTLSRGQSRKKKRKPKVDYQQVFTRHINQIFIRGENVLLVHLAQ
His-Lsm11(Δ211–332) (P83369, form named): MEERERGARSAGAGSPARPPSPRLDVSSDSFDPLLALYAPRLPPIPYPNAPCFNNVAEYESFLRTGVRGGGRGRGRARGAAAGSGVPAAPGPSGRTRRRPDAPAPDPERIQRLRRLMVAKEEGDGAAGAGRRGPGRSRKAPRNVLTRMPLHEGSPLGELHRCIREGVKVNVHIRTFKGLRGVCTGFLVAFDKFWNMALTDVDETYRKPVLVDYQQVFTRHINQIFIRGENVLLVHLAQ
GST-tagged Δ61 FLASH (amino acids 62–139) (Q9UKL3, residues 62-139): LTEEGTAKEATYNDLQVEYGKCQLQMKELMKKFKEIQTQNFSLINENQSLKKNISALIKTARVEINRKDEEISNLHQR
FLASH (51–137) C54S/C83A double mutant (Q9UKL3, form named): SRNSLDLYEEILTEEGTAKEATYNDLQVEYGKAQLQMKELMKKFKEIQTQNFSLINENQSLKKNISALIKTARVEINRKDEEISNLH
UniProt Q969L4: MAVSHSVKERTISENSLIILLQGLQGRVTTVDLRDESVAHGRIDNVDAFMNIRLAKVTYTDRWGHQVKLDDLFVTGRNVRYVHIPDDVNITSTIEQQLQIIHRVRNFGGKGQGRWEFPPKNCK

Tests used:
His-Lsm11(Δ211–332) [1] = target: His-Lsm11(Δ211–332) (UniProt P83369); experiment: SEC; equimolar sub-complexes, U7 snRNA (nucleotides 20–63) and two molar equivalents of FLASH mixed in 20 mM HEPES pH 7.5, 250 mM NaCl, 5 mM MgCl2, 5 mM DTT; MBP removed with TEV protease; Superdex 200 in 20 mM HEPES pH 7.5, 400 mM NaCl, 1.5 mM MgCl2, 5 mM DTT; peak analysed by SDS-PAGE and electron microscopy; both purified
His-Lsm11(Δ211–332) [2] = target: His-Lsm11(Δ211–332) (UniProt P83369); experiment: SEC; core assembled at 20 μM of each component in 600 mM KCl, 15 mM HEPES pH 7.9, 15% glycerol, 20 mM EDTA, 32°C; pre-bound to FLASH (40 μM); Superose 6 Increase 3.2/300 in 75 mM KCl, 15 mM HEPES–KOH pH 7.9, 10% glycerol, 20 mM EDTA; fractions read by silver staining or Western blotting; both purified
His-Lsm11(Δ211–332) [3] = target: His-Lsm11(Δ211–332) (UniProt P83369); experiment: pull-down; recombinant core U7 snRNP pre-bound to FLASH, bound with SLBP to biotinylated mH2a/2m-3′B histone pre-mRNA and held on streptavidin beads in processing buffer (75 mM KCl, 15 mM HEPES–KOH pH 7.9, 15% glycerol, 20 mM EDTA), 4°C; recombinant proteins read by silver staining or Western blotting; both purified
His-Lsm11(Δ211–332) [4] = target: His-Lsm11(Δ211–332) (UniProt P83369); experiment: co-purification of co-expressed proteins (nickel affinity, heparin column); His-Lsm11 and MBP-Lsm10 co-expressed in Hi5 insect cells from one baculovirus vector; lysate (20 mM Tris pH 7.5, 500 mM NaCl) on nickel beads, then HiTrap Heparin with a salt gradient
His-Lsm11, full length = His-Lsm11, full length (UniProt P83369); experiment: as above
SmG-His = SmG-His (UniProt P62308); experiment: co-purification of co-expressed proteins (nickel affinity, heparin column); proteins co-expressed in E. coli BL21 Star (DE3); only one carries a 6xHis tag; lysate (20 mM Tris pH 7.5, 500 mM NaCl) on nickel beads, then heparin with a salt gradient

binding (His-Lsm11(Δ211–332) [1]): binds
Substance: FLASH (51–137) C54S/C83A double mutant (from UniProt Q9UKL3 51-137) (domain or fragment)

binding (His-Lsm11(Δ211–332) [2]): binds | binding (His-Lsm11(Δ211–332) [3]): binds
Substance: GST-tagged Δ61 FLASH (amino acids 62–139) (from UniProt Q9UKL3 62-139) (domain or fragment)

binding (His-Lsm11(Δ211–332) [4]): binds | binding (His-Lsm11, full length): binds
Substance: MBP-Lsm10 (from UniProt Q969L4 1-123)

binding (SmG-His): binds
Substance: SmE, untagged (from UniProt P62304 1-92)
